Here are results for 3 substances from doi:10.1101/2024.08.06.606614 (bioRxiv, 2024).

Chains of the proteins cited; added tags and fusions are not shown.
UniProt A0A0G2JEB6: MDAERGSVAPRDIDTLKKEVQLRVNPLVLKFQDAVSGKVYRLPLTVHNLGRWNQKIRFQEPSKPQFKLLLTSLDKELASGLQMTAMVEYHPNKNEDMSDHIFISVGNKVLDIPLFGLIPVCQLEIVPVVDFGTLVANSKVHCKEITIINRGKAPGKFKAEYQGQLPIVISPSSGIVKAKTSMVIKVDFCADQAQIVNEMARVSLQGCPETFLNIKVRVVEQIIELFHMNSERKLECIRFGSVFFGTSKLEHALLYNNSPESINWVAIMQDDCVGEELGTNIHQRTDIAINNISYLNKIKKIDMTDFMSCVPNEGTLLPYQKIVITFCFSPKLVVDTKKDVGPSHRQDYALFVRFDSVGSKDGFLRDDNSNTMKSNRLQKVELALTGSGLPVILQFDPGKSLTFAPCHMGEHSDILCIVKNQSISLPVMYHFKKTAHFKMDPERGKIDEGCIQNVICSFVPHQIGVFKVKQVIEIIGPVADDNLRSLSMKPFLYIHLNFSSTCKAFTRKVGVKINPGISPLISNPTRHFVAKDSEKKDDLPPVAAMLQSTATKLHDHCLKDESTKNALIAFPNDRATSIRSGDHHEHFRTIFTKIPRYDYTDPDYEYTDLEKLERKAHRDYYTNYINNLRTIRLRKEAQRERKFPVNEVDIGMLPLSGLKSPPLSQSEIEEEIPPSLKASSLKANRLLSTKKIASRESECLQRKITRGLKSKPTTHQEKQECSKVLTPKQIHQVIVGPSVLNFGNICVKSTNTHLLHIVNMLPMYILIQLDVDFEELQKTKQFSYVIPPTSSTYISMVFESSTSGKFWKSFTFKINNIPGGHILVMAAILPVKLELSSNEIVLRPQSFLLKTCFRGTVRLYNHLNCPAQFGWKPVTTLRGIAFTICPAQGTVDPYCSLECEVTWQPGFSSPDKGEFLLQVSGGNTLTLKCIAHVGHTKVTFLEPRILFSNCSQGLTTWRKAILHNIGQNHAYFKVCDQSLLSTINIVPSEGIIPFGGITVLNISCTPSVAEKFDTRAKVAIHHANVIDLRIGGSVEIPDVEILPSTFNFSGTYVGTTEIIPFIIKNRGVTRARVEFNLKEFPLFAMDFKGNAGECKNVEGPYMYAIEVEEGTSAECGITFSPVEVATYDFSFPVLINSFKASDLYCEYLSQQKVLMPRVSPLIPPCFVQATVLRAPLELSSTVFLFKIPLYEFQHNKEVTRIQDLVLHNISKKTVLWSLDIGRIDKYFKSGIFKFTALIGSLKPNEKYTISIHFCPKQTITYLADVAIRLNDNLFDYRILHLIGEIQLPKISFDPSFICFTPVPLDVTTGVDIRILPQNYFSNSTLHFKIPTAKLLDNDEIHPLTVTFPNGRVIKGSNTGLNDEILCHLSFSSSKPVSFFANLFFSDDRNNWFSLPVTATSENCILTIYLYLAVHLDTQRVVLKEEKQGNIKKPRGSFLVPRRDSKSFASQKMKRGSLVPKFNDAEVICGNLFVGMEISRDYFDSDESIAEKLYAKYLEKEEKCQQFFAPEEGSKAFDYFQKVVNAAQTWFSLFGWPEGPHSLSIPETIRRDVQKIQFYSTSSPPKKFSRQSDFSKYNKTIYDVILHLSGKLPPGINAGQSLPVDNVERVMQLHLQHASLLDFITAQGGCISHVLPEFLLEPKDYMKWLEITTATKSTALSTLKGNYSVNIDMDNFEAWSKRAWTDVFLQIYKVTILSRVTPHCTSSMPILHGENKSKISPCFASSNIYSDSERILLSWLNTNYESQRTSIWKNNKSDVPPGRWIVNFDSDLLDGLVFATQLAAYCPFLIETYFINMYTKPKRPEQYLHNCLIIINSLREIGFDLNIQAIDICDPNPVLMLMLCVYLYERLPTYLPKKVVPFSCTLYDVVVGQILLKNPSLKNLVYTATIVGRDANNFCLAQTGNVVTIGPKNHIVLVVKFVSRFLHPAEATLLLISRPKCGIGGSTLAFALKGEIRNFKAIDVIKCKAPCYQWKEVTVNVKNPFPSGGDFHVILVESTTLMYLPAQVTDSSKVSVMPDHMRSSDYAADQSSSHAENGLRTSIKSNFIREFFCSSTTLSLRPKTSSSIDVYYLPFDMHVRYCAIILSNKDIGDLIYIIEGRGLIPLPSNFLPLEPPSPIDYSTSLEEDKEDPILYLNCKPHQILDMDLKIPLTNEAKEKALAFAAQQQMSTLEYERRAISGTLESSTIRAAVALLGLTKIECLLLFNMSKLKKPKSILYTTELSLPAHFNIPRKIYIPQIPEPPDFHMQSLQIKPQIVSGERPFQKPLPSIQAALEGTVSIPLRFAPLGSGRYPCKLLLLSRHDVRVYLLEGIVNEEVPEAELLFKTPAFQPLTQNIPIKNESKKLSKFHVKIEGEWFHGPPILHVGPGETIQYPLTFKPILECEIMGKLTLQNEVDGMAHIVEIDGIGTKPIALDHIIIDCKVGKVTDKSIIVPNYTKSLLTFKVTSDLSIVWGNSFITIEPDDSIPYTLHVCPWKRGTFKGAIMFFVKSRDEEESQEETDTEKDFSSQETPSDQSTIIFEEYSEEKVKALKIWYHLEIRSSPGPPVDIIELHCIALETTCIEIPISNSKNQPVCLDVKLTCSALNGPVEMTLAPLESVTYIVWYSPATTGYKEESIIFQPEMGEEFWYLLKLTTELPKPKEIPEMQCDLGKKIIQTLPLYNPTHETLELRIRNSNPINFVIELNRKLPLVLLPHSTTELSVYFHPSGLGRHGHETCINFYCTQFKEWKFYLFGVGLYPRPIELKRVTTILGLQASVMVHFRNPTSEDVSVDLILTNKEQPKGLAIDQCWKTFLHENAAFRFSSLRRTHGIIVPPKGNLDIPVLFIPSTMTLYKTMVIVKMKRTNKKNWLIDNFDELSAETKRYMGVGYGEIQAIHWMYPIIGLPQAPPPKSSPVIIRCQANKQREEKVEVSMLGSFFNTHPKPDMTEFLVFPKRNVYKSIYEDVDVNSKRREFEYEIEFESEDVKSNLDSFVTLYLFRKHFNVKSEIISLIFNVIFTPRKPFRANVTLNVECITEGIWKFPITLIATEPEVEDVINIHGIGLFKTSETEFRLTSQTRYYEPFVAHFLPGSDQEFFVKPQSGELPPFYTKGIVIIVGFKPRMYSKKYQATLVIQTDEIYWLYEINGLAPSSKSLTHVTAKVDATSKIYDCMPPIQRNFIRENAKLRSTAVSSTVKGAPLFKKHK
UniProt Q8C6S9: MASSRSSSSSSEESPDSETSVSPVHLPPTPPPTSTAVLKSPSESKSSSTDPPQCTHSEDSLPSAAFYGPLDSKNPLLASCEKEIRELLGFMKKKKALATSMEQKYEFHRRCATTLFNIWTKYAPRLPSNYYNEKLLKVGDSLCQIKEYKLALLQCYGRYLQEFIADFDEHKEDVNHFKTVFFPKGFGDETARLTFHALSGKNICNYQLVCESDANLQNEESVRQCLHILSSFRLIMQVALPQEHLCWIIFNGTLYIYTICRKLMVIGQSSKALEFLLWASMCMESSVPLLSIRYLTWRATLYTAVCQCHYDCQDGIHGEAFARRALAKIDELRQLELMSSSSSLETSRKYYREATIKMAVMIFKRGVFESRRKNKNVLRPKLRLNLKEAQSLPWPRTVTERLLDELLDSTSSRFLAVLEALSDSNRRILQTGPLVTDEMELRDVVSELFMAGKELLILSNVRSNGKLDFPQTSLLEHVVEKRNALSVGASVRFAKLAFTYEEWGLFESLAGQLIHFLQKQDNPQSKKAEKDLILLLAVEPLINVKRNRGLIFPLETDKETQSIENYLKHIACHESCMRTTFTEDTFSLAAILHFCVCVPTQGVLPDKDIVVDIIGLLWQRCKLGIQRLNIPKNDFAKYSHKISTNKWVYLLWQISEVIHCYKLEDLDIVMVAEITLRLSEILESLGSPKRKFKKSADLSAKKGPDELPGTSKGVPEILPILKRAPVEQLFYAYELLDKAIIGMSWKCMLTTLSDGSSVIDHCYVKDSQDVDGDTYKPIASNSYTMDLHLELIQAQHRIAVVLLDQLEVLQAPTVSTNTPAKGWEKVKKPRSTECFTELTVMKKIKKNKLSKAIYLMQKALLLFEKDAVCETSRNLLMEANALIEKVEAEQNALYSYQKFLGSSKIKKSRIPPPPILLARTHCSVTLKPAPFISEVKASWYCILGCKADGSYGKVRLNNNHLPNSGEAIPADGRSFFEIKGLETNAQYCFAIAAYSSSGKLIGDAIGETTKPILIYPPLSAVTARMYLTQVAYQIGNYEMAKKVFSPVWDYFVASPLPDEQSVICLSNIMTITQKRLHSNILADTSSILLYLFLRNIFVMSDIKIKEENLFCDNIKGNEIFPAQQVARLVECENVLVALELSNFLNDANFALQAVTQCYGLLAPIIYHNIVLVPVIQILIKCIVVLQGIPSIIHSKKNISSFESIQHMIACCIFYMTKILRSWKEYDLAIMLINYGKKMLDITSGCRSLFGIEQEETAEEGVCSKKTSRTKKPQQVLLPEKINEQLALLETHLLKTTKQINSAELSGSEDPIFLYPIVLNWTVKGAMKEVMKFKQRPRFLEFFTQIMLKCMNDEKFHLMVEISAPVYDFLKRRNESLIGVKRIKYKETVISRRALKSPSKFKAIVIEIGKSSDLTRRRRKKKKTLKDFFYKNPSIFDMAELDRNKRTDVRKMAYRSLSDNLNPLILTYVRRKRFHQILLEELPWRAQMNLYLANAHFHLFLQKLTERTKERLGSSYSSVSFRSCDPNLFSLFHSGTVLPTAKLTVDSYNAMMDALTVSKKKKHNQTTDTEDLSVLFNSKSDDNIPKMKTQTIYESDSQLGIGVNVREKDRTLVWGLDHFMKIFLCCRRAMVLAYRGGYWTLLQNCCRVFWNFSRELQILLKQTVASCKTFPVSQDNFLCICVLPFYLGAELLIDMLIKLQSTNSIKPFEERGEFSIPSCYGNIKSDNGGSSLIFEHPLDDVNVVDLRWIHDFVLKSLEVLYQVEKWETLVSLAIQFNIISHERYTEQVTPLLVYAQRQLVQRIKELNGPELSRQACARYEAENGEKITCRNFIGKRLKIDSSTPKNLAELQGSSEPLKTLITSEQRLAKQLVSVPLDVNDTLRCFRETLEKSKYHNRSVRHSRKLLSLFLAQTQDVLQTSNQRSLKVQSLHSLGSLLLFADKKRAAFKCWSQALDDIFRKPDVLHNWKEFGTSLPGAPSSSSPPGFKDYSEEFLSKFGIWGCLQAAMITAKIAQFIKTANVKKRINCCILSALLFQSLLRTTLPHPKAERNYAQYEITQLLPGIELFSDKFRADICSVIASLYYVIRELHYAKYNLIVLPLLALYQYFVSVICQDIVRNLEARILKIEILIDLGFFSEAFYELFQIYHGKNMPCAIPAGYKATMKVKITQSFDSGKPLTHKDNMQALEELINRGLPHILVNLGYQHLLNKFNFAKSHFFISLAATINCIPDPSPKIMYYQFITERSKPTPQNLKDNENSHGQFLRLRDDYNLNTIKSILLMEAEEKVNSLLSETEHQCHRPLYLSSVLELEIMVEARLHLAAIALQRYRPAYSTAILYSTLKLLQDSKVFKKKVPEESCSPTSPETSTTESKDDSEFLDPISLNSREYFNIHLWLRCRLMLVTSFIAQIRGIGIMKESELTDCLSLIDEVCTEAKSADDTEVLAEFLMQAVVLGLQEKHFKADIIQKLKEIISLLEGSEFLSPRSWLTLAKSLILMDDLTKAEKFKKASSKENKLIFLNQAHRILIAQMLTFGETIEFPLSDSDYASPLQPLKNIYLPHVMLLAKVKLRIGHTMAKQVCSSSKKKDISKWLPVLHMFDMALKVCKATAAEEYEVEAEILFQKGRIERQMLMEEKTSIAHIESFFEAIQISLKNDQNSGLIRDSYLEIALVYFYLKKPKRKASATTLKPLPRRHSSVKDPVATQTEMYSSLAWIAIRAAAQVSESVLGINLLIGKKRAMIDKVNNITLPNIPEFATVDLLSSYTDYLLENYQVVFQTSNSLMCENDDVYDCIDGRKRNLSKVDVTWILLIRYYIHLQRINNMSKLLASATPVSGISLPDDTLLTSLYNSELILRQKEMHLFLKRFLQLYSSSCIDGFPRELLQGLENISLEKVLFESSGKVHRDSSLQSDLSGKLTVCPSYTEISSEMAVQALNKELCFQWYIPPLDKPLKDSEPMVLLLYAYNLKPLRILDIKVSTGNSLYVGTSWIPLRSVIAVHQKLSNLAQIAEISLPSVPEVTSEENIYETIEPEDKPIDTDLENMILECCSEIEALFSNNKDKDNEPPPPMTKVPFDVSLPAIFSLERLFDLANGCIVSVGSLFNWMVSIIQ

No constants are given. Whether binding was seen depends on the method and setting. Some entries that bind do so weakly or less than the wild type.

Holding throughout (experiment): cryo-EM structure
Assay [1] concerns the target T1, KIF9 (mouse (endogenous in mouse sperm)) (UniProt Q9WV04).
T1 sequence: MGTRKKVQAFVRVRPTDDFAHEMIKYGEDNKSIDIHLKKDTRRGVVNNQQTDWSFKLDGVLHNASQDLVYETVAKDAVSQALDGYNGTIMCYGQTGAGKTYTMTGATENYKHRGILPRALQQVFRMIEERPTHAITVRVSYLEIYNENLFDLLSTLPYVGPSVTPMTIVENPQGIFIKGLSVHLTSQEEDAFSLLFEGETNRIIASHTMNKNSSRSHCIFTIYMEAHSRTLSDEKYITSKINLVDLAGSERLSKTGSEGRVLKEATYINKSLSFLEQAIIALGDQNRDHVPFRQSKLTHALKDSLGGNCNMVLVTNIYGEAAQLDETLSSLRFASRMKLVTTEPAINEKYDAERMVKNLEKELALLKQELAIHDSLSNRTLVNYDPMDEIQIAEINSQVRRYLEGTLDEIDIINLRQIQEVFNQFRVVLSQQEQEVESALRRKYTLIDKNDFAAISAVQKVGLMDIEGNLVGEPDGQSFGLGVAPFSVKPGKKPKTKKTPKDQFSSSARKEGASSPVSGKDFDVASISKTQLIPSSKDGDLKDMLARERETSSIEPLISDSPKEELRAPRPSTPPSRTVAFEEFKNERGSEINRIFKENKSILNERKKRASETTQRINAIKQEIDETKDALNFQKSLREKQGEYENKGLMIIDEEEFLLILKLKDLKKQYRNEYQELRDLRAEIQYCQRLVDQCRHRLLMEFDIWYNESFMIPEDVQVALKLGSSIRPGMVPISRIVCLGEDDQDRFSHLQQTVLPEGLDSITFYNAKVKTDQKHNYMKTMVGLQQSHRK

Assay [2] has as its target HYDIN (mouse (endogenous in mouse sperm)) (UniProt Q80W93).
Assay [3] addresses T2, SPAG16 (mouse (endogenous in mouse sperm)) (UniProt Q8K450).
T2 sequence: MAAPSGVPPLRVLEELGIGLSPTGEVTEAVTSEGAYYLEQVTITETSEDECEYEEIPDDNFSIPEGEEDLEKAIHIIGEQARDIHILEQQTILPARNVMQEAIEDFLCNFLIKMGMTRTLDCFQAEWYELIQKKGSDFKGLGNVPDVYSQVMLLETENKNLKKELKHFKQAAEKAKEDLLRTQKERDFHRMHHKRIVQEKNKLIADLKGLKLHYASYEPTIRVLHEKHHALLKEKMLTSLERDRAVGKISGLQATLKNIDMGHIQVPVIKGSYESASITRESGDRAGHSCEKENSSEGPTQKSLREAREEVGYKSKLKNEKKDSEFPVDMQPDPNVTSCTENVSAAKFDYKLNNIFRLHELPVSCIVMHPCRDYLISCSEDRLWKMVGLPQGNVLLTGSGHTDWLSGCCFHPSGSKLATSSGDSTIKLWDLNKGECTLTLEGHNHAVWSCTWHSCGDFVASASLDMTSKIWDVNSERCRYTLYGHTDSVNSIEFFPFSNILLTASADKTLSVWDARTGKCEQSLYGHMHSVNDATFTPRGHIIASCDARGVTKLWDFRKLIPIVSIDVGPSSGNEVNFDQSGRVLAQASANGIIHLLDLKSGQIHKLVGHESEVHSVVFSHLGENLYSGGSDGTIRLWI

The target of assay [4] is Serine/threonine-protein phosphatase PP1-gamma catalytic subunit (PPP1CC) (mouse (endogenous in mouse sperm)) (UniProt P63087).

Regarding HYDIN (from UniProt Q80W93 1-5154), in assay [1], the binding entry is “binds”.

For CFAP47 (from UniProt A0A0G2JEB6 1-3184), the binding entry in assay [2] and in assay [3] was “binds” in each case.

Take CFAP54 (from UniProt Q8C6S9 1-3106): in assay [4], the binding result is reported as “binds”.
